The chains behind the UniProt entries cited, without tags or fusion partners. Where a name states a change or a piece, a line headed by the entry shows the natural chain unless it says otherwise.
UniProt O94979: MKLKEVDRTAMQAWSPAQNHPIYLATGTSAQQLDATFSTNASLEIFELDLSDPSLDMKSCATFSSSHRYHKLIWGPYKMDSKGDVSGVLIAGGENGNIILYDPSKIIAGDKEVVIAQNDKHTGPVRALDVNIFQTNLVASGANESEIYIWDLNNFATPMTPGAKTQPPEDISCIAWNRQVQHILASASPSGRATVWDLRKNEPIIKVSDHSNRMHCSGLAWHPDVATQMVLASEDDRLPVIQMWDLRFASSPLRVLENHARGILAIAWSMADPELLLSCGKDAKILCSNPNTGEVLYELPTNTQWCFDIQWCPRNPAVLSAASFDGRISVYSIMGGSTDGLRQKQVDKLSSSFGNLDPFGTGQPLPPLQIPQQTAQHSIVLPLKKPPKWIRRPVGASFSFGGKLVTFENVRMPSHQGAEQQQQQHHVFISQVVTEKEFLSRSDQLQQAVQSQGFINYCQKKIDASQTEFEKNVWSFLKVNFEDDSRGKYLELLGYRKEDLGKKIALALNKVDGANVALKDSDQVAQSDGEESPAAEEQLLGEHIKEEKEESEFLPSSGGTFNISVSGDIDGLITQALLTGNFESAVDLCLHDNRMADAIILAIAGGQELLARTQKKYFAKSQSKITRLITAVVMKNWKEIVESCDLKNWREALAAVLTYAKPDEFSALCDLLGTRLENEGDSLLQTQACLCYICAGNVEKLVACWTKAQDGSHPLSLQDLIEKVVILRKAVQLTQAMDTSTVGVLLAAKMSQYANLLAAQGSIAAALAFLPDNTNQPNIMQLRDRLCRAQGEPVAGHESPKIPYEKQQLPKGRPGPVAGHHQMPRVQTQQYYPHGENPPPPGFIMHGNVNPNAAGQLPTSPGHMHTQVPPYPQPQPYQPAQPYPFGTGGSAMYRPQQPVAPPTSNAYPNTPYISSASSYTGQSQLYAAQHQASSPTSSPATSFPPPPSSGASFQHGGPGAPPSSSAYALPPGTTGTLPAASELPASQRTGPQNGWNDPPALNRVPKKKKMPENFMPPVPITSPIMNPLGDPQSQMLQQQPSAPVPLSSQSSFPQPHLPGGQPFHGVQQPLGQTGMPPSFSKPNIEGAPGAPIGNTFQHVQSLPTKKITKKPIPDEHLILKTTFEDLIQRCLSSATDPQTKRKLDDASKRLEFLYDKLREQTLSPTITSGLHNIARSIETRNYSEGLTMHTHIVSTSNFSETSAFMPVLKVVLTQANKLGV

According to paper doi:10.1101/2025.10.31.685804:

Experiments:
[1] = molecular target: EYFP-SEC31A 3SD (phospho-mimetic) (UniProt O94979); assay: co-IP
[2] = molecular target: EYFP-SEC31A 3SA (phospho-deficient) (UniProt O94979); assay: co-IP

- binding [1]: binds
- binding [2]: binds
B1: wild-type ULK1 (Unc-51-like kinase 1) (enzyme, UniProt O70405 1-1051)
chain: MEPGRGGVETVGKFEFSRKDLIGHGAFAVVFKGRHREKHDLEVAVKCINKKNLAKSQTLLGKEIKILKELKHENIVALYDFQEMANSVYLVMEYCNGGDLADYLHTMRTLSEDTVRLFLQQIAGAMRLLHSKGIIHRDLKPQNILLSNPGGRRANPSNIRVKIADFGFARYLQSNMMAATLCGSPMYMAPEVIMSQHYDGKADLWSIGTIVYQCLTGKAPFQASSPQDLRLFYEKNKTLVPAIPRETSAPLRQLLLALLQRNHKDRMDFDEFFHHPFLDASTPIKKSPPVPVPSYPSSGSGSSSSSSSASHLASPPSLGEMPQLQKTLTSPADAAGFLQGSRDSGGSSKDSCDTDDFVMVPAQFPGDLVAEAASAKPPPDSLLCSGSSLVASAGLESHGRTPSPSPTCSSSPSPSGRPGPFSSNRYGASVPIPVPTQVHNYQRIEQNLQSPTQQQTARSSAIRRSGSTTPLGFGRASPSPPSHTDGAMLARKLSLGGGRPYTPSPQVGTIPERPSWSRVPSPQGADVRVGRSPRPGSSVPEHSPRTTGLGCRLHSAPNLSDFHVVRPKLPKPPTDPLGATFSPPQTSAPQPCPGLQSCRPLRGSPKLPDFLQRSPLPPILGSPTKAGPSFDFPKTPSSQNLLTLLARQGVVMTPPRNRTLPDLSEASPFHGQQLGSGLRPAEDTRGPFGRSFSTSRITDLLLKAAFGTQASDSGSTDSLQEKPMEIAPSAGFGGTLHPGARGGGASSPAPVVFTVGSPPSGATPPQSTRTRMFSVGSSSSLGSTGSSSARHLVPGACGEAPELSAPGHCCSLADPLAANLEGAVTFEAPDLPEETLMEQEHTETLHSLRFTLAFAQQVLEIAALKGSASEAAGGPEYQLQESVVADQISQLSREWGFAEQLVLYLKVAELLSSGLQTAIDQIRAGKLCLSSTVKQVVRRLNELYKASVVSCQGLSLRLQRFFLDKQRLLDGIHGVTAERLILSHAVQMVQSAALDEMFQHREGCVPRYHKALLLLEGLQHTLTDQADIENIAKCKLCIERRLSALLSGVYA

Results are given in words; binding and its absence hold for the method and conditions named. In cells and extracts the contact can be indirect. Binding can be weak; no strength is given.
